This assay in a line: qHTS Assay for Lipid Storage Modulators in Drosophila S3 Cells.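 As to cell number change: cells counted by Cell Tracker Red CMTPX staining in the red channel.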 The settings on record: BODIPY lipid droplet fluorescence, 18-24 h; for cell number change: measured here: cell count max response, cells fed with added oleic acid. The gist of the method:
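Drosophila S3 cells got compounds at several concentrations plus oleic acid (400 uM solution). Laser-scanning cytometry with 488 nm excitation read lipid droplets at 500-530 nm and cells at 575-640 nm. Percent activity was relative to 20 uM Triacsin C.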

[1] abbreviates: measured here: lipid fluorescence (Fed channel) AC50, cells fed with added oleic acid.
[2] abbreviates: measured here: cell number channel AC50, cells fed with added oleic acid.

Here are results for 61 compounds from PubChem BioAssay AID2685 (National Center for Advancing Translational Sciences (NCATS), 2010).

SMILES strings stand for the structures. The list shows a part of the results. The main result of the screen is listed elsewhere. These columns were measured beside it and carry no call. Most of these compounds were active or inconclusive in the main read-out, so they are no random draw. The note in brackets gives the kind of curve behind each potency; many fits are weak.

Turning to `COCCNc1nnc(SCC(=O)c2c[nH]c3ccccc23)s1`, the cell number change is -16.7%. Further, under setting [1], the half-maximal activity concentration (AC50) was 25.9 µM [falling, partial curve, poor fit].

On to `COc1ccc(Cl)cc1NC(=O)COC(=O)CCc1cc(OC)c(OC)c(OC)c1`, for which the cell number change amounted to 20.8%. The AC50 under setting [2] is 3.66 µM [rising, full curve, poor fit]. Under setting [1], the AC50 was 25.9 µM [rising, partial curve].

Regarding `CN(CC(=O)Nc1ccc(N2CCOCC2)cc1)C(=O)CSc1ccc(Br)cc1`, the cell number change is -0.54%. Also, the AC50 under setting [1] was 29.1 µM [falling, partial curve, poor fit].

As for `O=C(Nc1ccc(OCC(F)(F)C(F)F)cc1)c1ccncc1`, the cell number change was determined as 25.9%.

Consider `Cc1ccc(C)c(NC(=S)/C(=C(\[O-])c2ccc(Cl)s2)[n+]2ccccc2)c1`, for which the cell number change is 69.4%.

For `O=c1cc(N2CCCCC2)c(-c2ccccc2)nn1Cc1cccc(Cl)c1`, the AC50 under setting [1] was 29.1 µM [falling, single point].

As for `CC(C)C(=O)Nc1cccc(NC(=S)NC(=O)c2ccc([N+](=O)[O-])cc2)c1`, the cell number change was -33.8%. In addition, the AC50 under setting [2] was 25.9 µM [falling, single point]. For the same compound, the half-maximal activity concentration (AC50) under setting [1] was 6.51 µM [falling, full curve].

Take `Cc1cc(Nc2ccc(C(C)C)cc2)n2ncnc2n1`: the cell number change turned out to be 10%. In addition, under setting [1], the AC50 is 16.4 µM [rising, partial curve, poor fit].

As to `Cc1cccc(NC(=O)COC(=O)CCc2ccccc2)c1C`, the cell number change was found to be 21.7%. For the same compound, the concentration at half-maximal activity (AC50) under setting [1] was 14.6 µM [rising, single point].

For the compound `O=C(O)C1CC=CCC1C(=O)NNS(=O)(=O)c1ccccc1` (stereo not drawn), the cell number change was -56.6%. For the same compound, the AC50 under setting [2] was 0.00517 µM [falling, full curve, poor fit].

Regarding `CCC(CC)C(=O)Nc1cccc(/C(C)=N/NC(=O)c2ccccc2Cl)c1`, the cell number change is 92.9%. Under setting [2], the AC50 is 16.4 µM [rising, single point].

For the compound `COc1cc(Cl)c(S(=O)(=O)N2CC(C)OC(C)C2)cc1Cl` (stereo not drawn), the cell number change was determined as 2.4%.

In the case of `Cn1c(=O)cc(OCCCC(=O)N2CCN(c3ccccn3)CC2)c2ccccc21`, the AC50 runs as follows: under setting [2], 0.231 µM [rising, full curve, poor fit]; under setting [1], 0.259 µM [rising, full curve, poor fit].

In the case of `COC(=O)c1scc(C)c1NC(=O)/C=C/C(=O)O`, the cell number change was -48.3%. For the same compound, the AC50 under setting [2] was 16.4 µM [falling, single point]. Under setting [1], the AC50 is 29.1 µM [falling, single point].

As to `CCc1ccc(C(=O)NN=C2CCCCCC2)s1`, the AC50 under setting [1] was 2.91 µM [rising, single point].

Regarding `COc1ccc(CCNC(=O)c2cnccn2)cc1`, the cell number change is -8.17%.

On to `COc1ccc2cc(OCC(=O)NNC(=O)Nc3ccc(C(C)=O)cc3)ccc2c1`, for which the cell number change was 19.2%.

Turning to `CCC(c1nnnn1C1CCCCC1)N(Cc1ccco1)Cc1cc2ccc(OC)cc2[nH]c1=O` (stereo not drawn), the cell number change is -42.5%. The AC50 under setting [2] is 20.6 µM [falling, single point]. The AC50 under setting [1] is 0.259 µM [rising, partial curve].

For the compound `CC(C)c1nc2scc(-c3ccc(Cl)cc3)c2c(=O)n1N`, the cell number change is 25.5%. Moreover, the half-maximal activity concentration (AC50) under setting [1] is 29.1 µM [rising, single point].

Turning to `Cc1ccc(CCNC(=O)C2CCN(S(=O)(=O)N3CCCC3)CC2)cc1`, the cell number change is -20.4%. Under setting [1], the concentration at half-maximal activity (AC50) is 3.66 µM [falling, partial curve].

`Cc1cccc(CS(=O)(=O)Cc2ccc(C(=O)NC3CCCCCC3)o2)c1`: the AC50 under setting [1] is 20.6 µM [falling, partial curve].

For `Cn1nc(-c2ccc3c(c2)OCCO3)c2ccccc2c1=O`, the cell number change worked out at 52.6%. The AC50 under setting [1] is 29.1 µM [rising, partial curve, poor fit].

On to `COc1ccccc1CNc1cc(-c2ccccc2)ccc1OC`, for which the cell number change came to 10%. Besides, the half-maximal activity concentration (AC50) under setting [2] is 0.13 µM [falling, full curve, poor fit]. Under setting [1], the AC50 was 0.164 µM [falling, full curve].

`O=C(Cn1ccc(NC(=O)OCc2ccccc2)nc1=O)NCCCc1ccccc1`: the cell number change was -2.39%. In addition, under setting [1], the half-maximal activity concentration (AC50) is 0.651 µM [falling, single point].

As for `CCCCCCCC(O)CC(CC1CCCCC1)C(=O)NN` (stereo not drawn), the cell number change worked out at 19.6%.

As to `C=CCSc1nnc2c(n1)OC(c1ccccn1)N(C(C)=O)c1ccccc1-2` (stereo not drawn), the cell number change was -24.1%. Besides, the AC50 under setting [2] was 0.206 µM [falling, full curve, poor fit]. Further, the AC50 under setting [1] was 0.651 µM [falling, full curve, poor fit].

With `O=C(NC1CCCCC1)c1cccc(Cn2cc(Cl)cn2)c1`, the cell number change stood at 68%. Further, under setting [2], the AC50 was 11.6 µM [rising, partial curve].

In the case of `CCCSc1ccc2nc(NC(=O)OC)[nH]c2c1`, the cell number change was -2.7%. In addition, the AC50 under setting [1] was 4.11 µM [falling, single point].

Consider `COc1cc(CN(C)Cc2nc3cc(C(F)(F)F)ccc3c(=O)[nH]2)ccc1OC(F)F`, for which the cell number change was -25.5%. Further, under setting [2], the AC50 was 6.51 µM [falling, single point]. Besides, the AC50 under setting [1] was 2.06 µM [falling, partial curve, poor fit].

In the case of `O=C(O)c1ccc(N2CC3CC(C2)c2cccc(=O)n2C3)c(NC(=S)Nc2ccc(Br)cc2)c1` (stereo not drawn), the cell number change is -19.1%.

Consider `CC(C)C[C@H]1CNC(=O)C(=O)N1C[C@H](C)NC(=O)Cc1ccccc1`, for which the cell number change came to 11.3%.

For the compound `CCCCc1ncc(CN2CCC(n3nccc3NC(=O)c3ccccc3OC)CC2)[nH]1`, the cell number change is 22.7%. Besides, the AC50 under setting [1] was 6.51 µM [falling, partial curve, poor fit].

On to `COc1cccc(-n2cnc(=O)c3cccnc32)c1`, for which the cell number change was 14.7%. For the same compound, the AC50 under setting [2] is 0.651 µM [rising, full curve, poor fit].

As to `NS(=O)(=O)c1ccc(C(=O)Nc2ccc(-c3nc4cccnc4s3)cc2)cc1`, the AC50 under setting [1] was 0.0731 µM [falling, full curve, poor fit].

As to `Cc1ccc(O)c(C(=O)c2cc(C#N)c(=O)n(C(C)c3ccccc3)c2)c1` (stereo not drawn), the cell number change was -13.7%. Further, under setting [1], the AC50 was 14.6 µM [falling, single point].

For the compound `CCOC(=O)c1cc2c(=O)[nH]ccc2nc1C`, the cell number change was -27.1%. The AC50 under setting [1] was 23.1 µM [falling, single point].

Regarding `Cc1cc2c(c(=O)n1CCc1ccccc1)C(C(C)C)C(C#N)=C(N)O2` (stereo not drawn), the cell number change amounted to 116%. In addition, the AC50 under setting [2] is 1.3 µM [rising, full curve]. Moreover, the concentration at half-maximal activity (AC50) under setting [1] is 1.3 µM [rising, full curve].

Take `Cc1cc(C(F)(F)F)c2sc(N)nc2n1`: the cell number change is -14.4%. Moreover, under setting [1], the AC50 was 6.51 µM [falling, partial curve, poor fit].

On to `CCN=C(NCC)SC1CC(=O)N(c2ccccc2)C1=O` (stereo not drawn), for which the cell number change is 33.7%. Besides, under setting [2], the AC50 was 5.8 µM [rising, full curve, poor fit].

On to `Cc1c(NC(=O)COC(=O)c2ccccc2Cl)c(=O)n(-c2ccccc2)n1C`, for which the cell number change was determined as 12.5%. Also, under setting [1], the AC50 is 16.4 µM [rising, single point].

In the case of `Cc1cc2oc(=O)cc(CN3CCCc4ccccc43)c2cc1C`, the cell number change was -26.2%. Further, the half-maximal activity concentration (AC50) under setting [1] is 14.6 µM [falling, single point].

Consider `NNC(=O)c1nnn(-c2nonc2N)c1-c1cccs1`, for which the cell number change was 18.7%. Also, the AC50 under setting [1] is 0.259 µM [rising, full curve, poor fit].

Consider `O=S(=O)(c1ccccc1)N1CC=C(c2ccccc2)CC1`, for which the cell number change turned out to be 32%. Besides, the AC50 under setting [2] was 8.2 µM [rising, partial curve, poor fit]. Under setting [1], the AC50 is 4.11 µM [rising, full curve, poor fit].

With `CCCS(=O)(=O)N1CCCC(C(=O)NCCCN(CC)c2cccc(C)c2)C1` (stereo not drawn), the cell number change came out at 15.9%.

`O=C(NS(=O)(=O)c1ccc(Cl)s1)c1ccccc1`: the cell number change came to 8.29%.

As to `Oc1[nH]c2ccccc2c1N=NC(=S)NCCc1ccccc1`, the cell number change is 27.4%. In addition, the AC50 under setting [2] was 6.51 µM [rising, single point]. The AC50 under setting [1] is 6.51 µM [rising, single point].

In the case of `Cc1ccc(-c2nc(N/N=C/c3ccncc3)c3ccccc3n2)cc1`, the cell number change worked out at 151%. Moreover, the AC50 under setting [2] was 29.1 µM [rising, single point]. Also, the AC50 under setting [1] was 3.26 µM [falling, single point].

Regarding `O=C(c1ccccc1)N1CCN(C(=O)c2nn3c(C(F)(F)F)cc(-c4ccco4)nc3c2Br)CC1`, the cell number change is -1.9%. The concentration at half-maximal activity (AC50) under setting [1] was 6.51 µM [rising, single point].

Consider `CN(C)CCCNC(=O)CCc1ncc(C(F)(F)F)cc1Cl`, for which the cell number change is -37.2%. Moreover, the AC50 under setting [1] is 3.66 µM [falling, full curve].

As to `O=C(O)COC(=O)C1C(c2ccccc2)C(C(=O)O)C1c1ccccc1` (stereo not drawn), the cell number change turned out to be 27.6%. Moreover, the AC50 under setting [2] is 0.411 µM [rising, full curve, poor fit]. Moreover, the AC50 under setting [1] is 0.092 µM [rising, full curve, poor fit].

As to `CC(C)NC(=O)Cn1c(SCC(=O)N2c3ccccc3CC2C)nc2ccccc21` (stereo not drawn), the AC50 under setting [2] was 0.58 µM [falling, single point].

For the compound `COc1cc(/C=N/n2c(-c3n[nH]c4c3CCC4)n[nH]c2=S)ccc1O`, the cell number change was found to be 13.1%. The half-maximal activity concentration (AC50) under setting [1] was 0.92 µM [rising, full curve].

In the case of `COc1ccc(C(C)(C)C)cc1NC(=O)COC(=O)C(C)C`, the cell number change is -26.2%. Also, the AC50 under setting [1] is 29.1 µM [falling, single point].

Turning to `CCOC(=O)c1cnc(SCC(=O)c2ccc(Cl)cc2)nc1N`, the cell number change turned out to be 76.1%. Also, the AC50 under setting [2] was 14.6 µM [rising, partial curve].

Take `CCOC(=O)CNC(=O)CSc1nnc(C)c(=O)[nH]1`: the cell number change came to 3.53%. Also, under setting [1], the half-maximal activity concentration (AC50) is 5.17 µM [falling, single point].

As to `CC(NC(=O)c1ccncc1)c1ccccc1` (stereo not drawn), the cell number change was -1.09%. The AC50 under setting [1] is 4.11 µM [rising, partial curve].

With `COc1cc2c(cc1OC)C(c1ccccc1[N+](=O)[O-])N(C(C)=O)CC2` (stereo not drawn), the cell number change is -3.65%. The AC50 under setting [1] was 0.58 µM [falling, single point].

Regarding `Cc1ccc(C)c2[nH]c(=O)c(CN(Cc3nnnn3C3CCCCC3)CC3CCCO3)cc12` (stereo not drawn), the cell number change is 31.8%. Besides, the AC50 under setting [2] was 1.46 µM [rising, partial curve, poor fit].

For the compound `C/C(=N\NC(=O)c1cccnc1)c1c(O)cc(C)oc1=O`, the AC50 under setting [1] is 25.9 µM [rising, single point].

Turning to `O=S(=O)(c1ccc(F)c(Cl)c1)N1CCCC1`, the cell number change was -114%.

In the case of `C=C(C)COc1ccc(-c2[nH]ncc2-c2ccc(OC)cc2)c(O)c1`, the cell number change is -59.2%. Also, under setting [2], the AC50 is 29.1 µM [falling, single point]. The AC50 under setting [1] was 29.1 µM [falling, partial curve, poor fit].
